Consider 3 molecules from patent US20110178072A1, “STEREOSPECIFICITY OF METHYLSULFINYL REDUCTION” (priority 2008, published 2011).

One data set deals with SK-Hep1 cells. The data set is described as follows: HPLC analysis of consumption of Met and Met sulfoxides from growth media. In kind it is cell-based, human. To be noted: at 96 hours.
Data set [1] in a line: HPLC analysis of Met-RO and Met-SO level in mouse plasma. The format is in vivo.
Where [2] appears, read: medium supplemented with the compound alone (0.1 mM).
The mark [3] stands for this setting: wild type mice subjected to selenium deficiency.

With `CSCC[C@H](N)C(=O)O` [Met, methionine], the “Relative amount in the medium, of the initial level” value (from here on “Relative amount in the medium”) in the data set with SK-Hep1 cells (setting [2]) is recorded as “approximately 60%”.

As to `C[S@@+]([O-])CC[C@H](N)C(=O)O` [Met-RO, methionine-R-sulfoxide], the Concentration in plasma entry was “≈ 9.8±1.6 μM” in data set [1] (MsrA knockout mice), “≈ 9.1±0.7 μM” in data set [1] (wild type mice) and “≈ 16.2±2.4 μM” in data set [1] (setting [3]). Moreover, the “Relative amount in the medium” value in the data set with SK-Hep1 cells (in Met-RSO medium (0.1 mM)) and in the data set with SK-Hep1 cells (setting [2]) was “not changed” throughout.

In the case of `C[S@+]([O-])CC[C@H](N)C(=O)O` [Met-SO, methionine-S-sulfoxide], the Concentration in plasma result was “≈ 14.6±3.1 μM” in data set [1] (MsrA knockout mice), “not detected” in data set [1] (wild type mice) and “≈ 3.7±0.6 μM” in data set [1] (setting [3]). In addition, the “Relative amount in the medium” value with SK-Hep1 cells (in Met-RSO medium (0.1 mM)) amounted to 77%; in the data set with SK-Hep1 cells (setting [2]), 88%.
